Assay [1] addresses FLAG-tagged full-length Shisa9/CKAMP44 (mouse) (UniProt Q9CZN4). Kind of assay: co-IP; FLAG-CKAMP44-FL, MYC-PICK1 and EGFP-PKCα-WT expressed together in COS-7; pull-down of FLAG-CKAMP44-FL, mIgG as control; with or without PMA (1 μM, 30 min); WB.
Assay [2] concerns the target MYC-tagged full-length Shisa9/CKAMP44 (mouse) (UniProt Q9CZN4). The assay can be described thus: co-IP; two tagged proteins overexpressed together in COS-7; IP buffer 50 mM Tris pH 7.5, 100 mM NaCl, 0.1-1% Triton-X; 2 μg antibody (FLAG, MYC or GFP; mIgG as control) 3 h at 4 °C, protein-G agarose; WB.
In assay [3] the target is EGFP-CKAMP44-ΔNΔC (199-415AA) (mouse) (UniProt Q9CZN4). The description is as above.
For assay [4], the target named is EGFP-CKAMP44-ΔC (171-415AA) (mouse) (UniProt Q9CZN4). Described as above.
Assay [5] concerns the target EGFP-CKAMP44 (cytoplasmic tail, 171-424AA) (mouse) (UniProt Q9CZN4). The assay is described as above.
Assay [6] addresses FLAG-tagged full-length Shisa9/CKAMP44 (mouse) (UniProt Q9CZN4). The assay is described as above.

Sequences of proteins named here, by UniProt entry; tags and fusion partners are left off. A change or cut given only in a name is not applied to a line headed by its entry. A line that says so, or that is headed by a name, gives the form on record, which may keep a tag or linker. Residues count along the entry.
UniProt Q9CZN4: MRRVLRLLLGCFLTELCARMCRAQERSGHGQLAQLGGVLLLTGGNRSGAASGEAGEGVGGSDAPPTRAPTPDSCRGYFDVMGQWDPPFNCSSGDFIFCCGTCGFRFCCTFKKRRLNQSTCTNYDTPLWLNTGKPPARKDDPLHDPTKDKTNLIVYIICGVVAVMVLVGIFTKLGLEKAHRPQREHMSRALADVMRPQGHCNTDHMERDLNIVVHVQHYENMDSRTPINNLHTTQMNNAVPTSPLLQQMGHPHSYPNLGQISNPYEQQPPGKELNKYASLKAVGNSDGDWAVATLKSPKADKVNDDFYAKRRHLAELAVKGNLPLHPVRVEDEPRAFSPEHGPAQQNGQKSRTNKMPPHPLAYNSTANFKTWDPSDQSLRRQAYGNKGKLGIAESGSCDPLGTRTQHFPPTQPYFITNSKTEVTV
FLAG-tagged full-length Shisa9/CKAMP44: residues 24-424 of Q9CZN4
EGFP-CKAMP44 (cytoplasmic tail, 171-424AA): residues 171-424 of Q9CZN4
EGFP-CKAMP44-ΔC (171-415AA): residues 171-415 of Q9CZN4
EGFP-CKAMP44-ΔNΔC (199-415AA): residues 199-415 of Q9CZN4
UniProt Q9NRD5: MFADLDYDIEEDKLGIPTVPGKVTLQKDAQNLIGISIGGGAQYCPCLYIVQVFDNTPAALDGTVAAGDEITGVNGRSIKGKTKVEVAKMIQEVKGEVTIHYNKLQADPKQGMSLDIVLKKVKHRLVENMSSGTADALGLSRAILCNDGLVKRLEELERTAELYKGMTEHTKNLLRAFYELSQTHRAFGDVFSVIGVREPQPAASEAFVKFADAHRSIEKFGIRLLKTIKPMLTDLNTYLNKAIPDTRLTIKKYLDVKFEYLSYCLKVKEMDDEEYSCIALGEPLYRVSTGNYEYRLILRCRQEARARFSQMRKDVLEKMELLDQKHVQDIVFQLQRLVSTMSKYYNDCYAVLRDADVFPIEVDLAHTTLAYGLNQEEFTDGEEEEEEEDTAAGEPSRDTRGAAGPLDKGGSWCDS

Results are given in words; binding and its absence hold for the method and conditions named. Binding seen in cells or lysates may run through a third protein. Some results given as binding are weak or reduced against the parent protein; the word gives no strength.

Consider “EGFP-PKCα-WT (from UniProt P17252 1-672) (enzyme)”, for which the binding result in assay [1] is on record as “binds”.
Take “FLAG-MAGI1 (from UniProt Q6RHR9-1 1-1471)”: in assay [2], the binding result is given as “binds”.
As to FLAG-PICK1 (from UniProt Q9NRD5 1-415), the binding entry in assay [3], in assay [4] and in assay [5] was “binds” throughout.
In the case of MYC-PICK1 (from UniProt Q9NRD5 1-415), the binding entry in assay [6] and in assay [1] was “binds” in each case.
